Changes are numbered by the printed parent chain. No constants are given. Whether binding was seen depends on the method and setting. In cells and extracts the contact can be indirect. Binding can be weak; no strength is given. Tags and fused reporters may be left off the sequences shown. One block for each binder: values may come before it.
Tests used:
[1] = target: SDHAF3 p.Phe53Leu expressed in yeast (human) (UniProt Q9NRP4); test: co-IP; yeast mitochondria solubilised in 1% digitonin, 10 mM Tris-HCl pH 7.4, 150 mM NaCl, 1 mM EDTA; anti-SDHAF3 antibody 16 h at 4 °C, protein A magnetic beads; immunoblot; anti-HA antibody as negative control
[2] = target: SDHAF3 p.Phe53Leu (c.157 T > C), Myc-DDK-tagged (human) (UniProt Q9NRP4); test: co-IP; HEK293 co-transfected for 24 h with DDK-tagged SDHAF3 and GFP-tagged SDHB; anti-DDK on Dynabeads M-280 sheep anti-mouse IgG, overnight at 4 °C; washes in Co-IP buffer with 500 mM NaCl, 0.1% Triton X100; immunoblot for GFP and DDK; mouse IgG as negative control

Protein sequences, listed by entry. Tags and fused reporters are not part of them. Lines headed by an entry give the natural chain unless they say otherwise; changes in a name come on top.
UniProt Q9NRP4: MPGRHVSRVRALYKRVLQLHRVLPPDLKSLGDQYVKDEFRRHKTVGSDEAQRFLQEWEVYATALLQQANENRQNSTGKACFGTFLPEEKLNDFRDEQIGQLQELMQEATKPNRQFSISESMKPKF

B2: SDHB p.Ala43Pro, GFP-tagged (protein, UniProt P21912 29-280)
chain: AQTAAATAPRIKKFPIYRWDPDKAGDKPHMQTYEVDLNKCGPMVLDALIKIKNEVDSTLTFRRSCREGICGSCAMNINGGNTLACTRRIDTNLNKVSKIYPLPHMYVIKDLVPDLSNFYAQYKSIEPYLKKKDESQEGKQQYLQSIEEREKLDGLYECILCACCSTSCPSYWWNGDKYLGPAVLMQAYRWMIDSRDDFTEERLAKLQDPFSLYRCHTIMNCTRTCPKGLNPGKAIAEIKKMMATYKEKKASV
binding [2]: binds

B4: SDHB (succinate dehydrogenase subunit B), wild type, GFP-tagged (protein, UniProt P21912 29-280)
chain: B2 chain with P15A
binding [2]: binds

B6: SDHB p.Arg46Gln, GFP-tagged (protein, UniProt P21912 29-280)
chain: B2 chain with P15A, R18Q
binding [2]: no binding

B9: SDHB p.Arg46Gly, GFP-tagged (protein, UniProt P21912 29-280)
chain: B2 chain with P15A, R18G
binding [2]: no binding

The next lines start with the values.

binding [1]: binds
B1: Sdh2-His6Myc2 (protein, UniProt P21801 21-266)
chain: TATTAAATHTPRLKTFKVYRWNPDEPSAKPHLQSYQVDLNDCGPMVLDALLKIKDEQDSTLTFRRSCREGICGSCAMNIGGRNTLACICKIDQNESKQLKIYPLPHMFIVKDLVPDLTNFYQQYKSIQPYLQRSSFPKDGTEVLQSIEDRKKLDGLYECILCACCSTSCPSYWWNQEQYLGPAVLMQAYRWLIDSRDQATKTRKAMLNNSMSLYRCHTIMNCTRTCPKGLNPGLAIAEIKKSLAFA

binding [2]: binds
B3: SDHB p.Cys101Tyr, GFP-tagged (protein, UniProt P21912 29-280)
chain: B2 chain with P15A, C73Y

binding [2]: no binding
B5: SDHB p.Arg242His, GFP-tagged (protein, UniProt P21912 29-280)
chain: B2 chain with P15A, R214H

binding [2]: binds
B7: SDHB p.Ile127Ser, GFP-tagged (protein, UniProt P21912 29-280)
chain: B2 chain with P15A, I99S

binding [2]: binds
B8: SDHB p.Pro197Arg, GFP-tagged (protein, UniProt P21912 29-280)
chain: B2 chain with P15A, P169R

Source: article PMC5525311
